Earlier results as cited in publication PMC6581027, “In vitro Radiopharmaceutical Evidence for MCHR1 Binding Sites in Murine Brown Adipocytes” (Frontiers in Endocrinology, 2019).
Where “and” joins values, the source holds several entries; their conditions need not be identical. Identical values can stand only once.

Molecular target: ADRB3
Parameters: method as in PMID 14730417, PMID 8719421, PMID 7903415, PMID 2570461
Details: literature values for standard compounds; ref [43], [45]–[47]; read-out: Ki ADRB3 reference; cited from earlier work

CC(C)NC[C@H](O)COc1cccc2ccccc12.Cl [(S)-propranolol, (S)-propranolol hydrochloride]
Ki: 186 nM and 145 nM
